Test results: PubChem BioAssay AID588590 (National Center for Advancing Translational Sciences (NCATS), 2011)
Hit rate of the full screen: of about 390,000 compounds, about 4,000 (1%) were called active. Inconclusive results, whose numbers are uncertain, are shown with a selection of clear calls. Calls come from the whole dose curve; as a rule, active = well fitted inhibition curve with a large enough effect; inconclusive = small, poorly fitted or top-dose-only effect, or another doubt; inactive = no such curve, though single readings can be large or run the other way. A potency beside an inconclusive call is a rough fit, not a confirmed value.

The chains behind the UniProt entries cited, without tags or fusion partners. Where a name states a change or a piece, a line headed by the entry shows the natural chain unless it says otherwise.
UniProt Q9UNA4: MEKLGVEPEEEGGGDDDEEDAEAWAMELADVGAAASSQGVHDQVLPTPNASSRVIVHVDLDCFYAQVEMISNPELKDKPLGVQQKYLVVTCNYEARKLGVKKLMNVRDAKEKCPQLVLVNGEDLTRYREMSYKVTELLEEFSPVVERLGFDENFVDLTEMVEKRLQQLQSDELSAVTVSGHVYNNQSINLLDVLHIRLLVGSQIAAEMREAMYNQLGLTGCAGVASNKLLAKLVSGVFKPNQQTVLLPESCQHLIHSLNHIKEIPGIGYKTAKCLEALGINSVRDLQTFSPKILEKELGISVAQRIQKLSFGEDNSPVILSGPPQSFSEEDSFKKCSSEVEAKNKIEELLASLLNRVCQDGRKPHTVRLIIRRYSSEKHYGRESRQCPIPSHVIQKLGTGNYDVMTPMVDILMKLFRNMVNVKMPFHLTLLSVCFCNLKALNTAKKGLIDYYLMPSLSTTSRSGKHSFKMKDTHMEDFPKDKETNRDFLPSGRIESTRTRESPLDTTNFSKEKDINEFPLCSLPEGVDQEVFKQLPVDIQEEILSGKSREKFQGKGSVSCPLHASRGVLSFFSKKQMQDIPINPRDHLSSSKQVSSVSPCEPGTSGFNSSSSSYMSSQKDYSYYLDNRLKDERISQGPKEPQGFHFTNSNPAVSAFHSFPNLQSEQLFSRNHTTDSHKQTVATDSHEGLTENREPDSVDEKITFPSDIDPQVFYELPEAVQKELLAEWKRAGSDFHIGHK

molecular target: DNA polymerase iota (Homo sapiens) (UniProt Q9UNA4); assay: qHTS for Inhibitors of Polymerase Iota; details: Pol iota fluorescent replication assay, 10 min; series mostly up to 115 µM; activity, negative = inhibition: at the top concentration
Summary of the method: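 Fluorescent replication assay read twice, at 0 min and 10 min after adding 50 nM (final) substrate. Enzyme (10 nM) and compounds were first incubated 15 min at room temperature; enzyme-free buffer wells were negative controls.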
Potency is the fitted concentration of half-maximal effect.

Potency, active:
NC(=O)Cc1ccc(C(=O)CSc2nnc(-c3ccncc3)n2C2CC2)s1 14.1 µM
N#Cc1c(NC(=O)/C=C/c2ccco2)sc2c1CCCC2 50.1 µM
CCOC(=O)Cc1nnc(NC(=O)CSc2nnc3c4ccccc4n(C)c3n2)s1 5.01 µM
NC1=NC(=O)/C(=C/c2ccc(-c3ccc(S(N)(=O)=O)cc3)o2)S1 44.7 µM
COc1ccc(-c2cc(-c3ccccc3)nc(SC(C)C(=O)O)c2C#N)cc1 (stereo not drawn) 39.8 µM

Potency, inconclusive:
COc1cccc(CN2CCN(C(=O)c3cc(-c4ccncc4)nc4ccc(C)cc34)CC2)c1 89.1 µM [inhibitor, single point]
CCOC(=O)c1sc(NC(=O)c2cc(-c3cccc(O)c3)on2)c(C(=O)OCC)c1C 28.2 µM [inhibitor, single point]
Cc1ccnc(NC(=O)c2ccc(N3C(=O)CCC3=O)cc2)c1 7.94 µM [inhibitor, single point]
COc1cccc(/C=N/Nc2nc(Nc3ccc([N+](=O)[O-])cc3)nc(N3CCCC3)n2)c1O 15.8 µM [inhibitor, full curve, poor fit]
O=C(O)c1ccc(-c2sc(Nc3ccccc3)n[n+]2-c2ccc(F)cc2)cc1 31.6 µM [inhibitor, partial curve, poor fit]
O=C(c1ccco1)N1CCN(c2ncnc3sc4c(c23)CCC4)CC1 56.2 µM [inhibitor, partial curve, poor fit]
C[N+](C)(C)C(Cc1ccccc1)C(=O)[O-] (stereo not drawn) 50.1 µM [inhibitor, partial curve, poor fit]
Cc1ccccc1OCC(=O)OCC(=O)Nc1ncc(Cl)c(C)c1Cl 50.1 µM [inhibitor, partial curve, poor fit]
COCCNC(=O)CSc1nc(-c2ccc(F)cc2)[nH]c1-c1ccc(Cl)cc1 100 µM [inhibitor, single point]
COC(=O)[C@H](C)NC(=O)c1cc2c(cn1)[nH]c1ccccc12 22.4 µM [inhibitor, partial curve, poor fit]
O=C(NC1CCCCC1)c1cc(C2CC2)nn1-c1ccccc1 70.8 µM [inhibitor, single point]
CC(CNC(=O)Cn1ncc2c3ccccc3n(Cc3cccc(Cl)c3)c2c1=O)c1ccccc1 (stereo not drawn) 89.1 µM [inhibitor, single point]
COc1ccc(OC)c(NC(=O)C2CCN(S(=O)(=O)c3ccc(C)cc3)CC2)c1 89.1 µM [inhibitor, single point]
O=C(NC(Cc1ccccc1)c1nc2ccccc2[nH]1)C1CC(=O)N(c2ccc3c(c2)OCCO3)C1 (stereo not drawn) 22.4 µM [inhibitor, partial curve, poor fit]
O=c1c2cc(O)c(O)cc2oc2cc(O)c(C3OC(CO)C(O)C(O)C3O)c(O)c12 (stereo not drawn) 5.62 µM [inhibitor, partial curve, poor fit]
O=C1CC(=C(c2ccccc2)c2ccccc2)C(=O)N1CCCCN1CCN(c2ccccc2)CC1 10 µM [inhibitor, full curve, poor fit]
Cc1cc(N2CCCCC2)nc2ccc(NC(=O)c3ccc(F)cc3)cc12 79.4 µM [inhibitor, single point]
O=C(Nc1cccc(C(F)(F)F)c1)c1csc(-c2ccncc2)n1 28.2 µM [inhibitor, partial curve, poor fit]
O=C(OCC(=O)N1CCc2ccccc2C1)c1cccc([N+](=O)[O-])c1 8.91 µM [inhibitor, full curve, poor fit]
Cc1nc(N2C(=O)C(=O)/C(=C(/O)c3ccccc3)C2c2ccco2)sc1C (stereo not drawn) 17.8 µM [inhibitor, full curve, poor fit]
O=C(CNC(=O)c1ccc(Br)o1)NCc1ccccc1 89.1 µM [inhibitor, partial curve, poor fit]
CC(C)Cn1c(=O)c2ccccc2n2c(-c3ccc(Br)cc3)nnc12 89.1 µM [inhibitor, single point]
Cc1ccc(-n2sc3ccccc3c2=O)cc1S(=O)(=O)N1CCCCC1 22.4 µM [inhibitor, partial curve, poor fit]
CC(=O)Nc1ccc(S(=O)(=O)NCC2CCC(C(=O)NCCCOC(C)C)CC2)cc1 (stereo not drawn) 89.1 µM [inhibitor, single point]
Cc1ccc(CNC(=O)c2cc(-c3cc(C)cc(C)c3O)n[nH]2)cc1 56.2 µM [inhibitor, single point]
CN(Cc1cnn(-c2ccc(F)cc2)c1)Cc1nc(Cc2ccccc2)no1 79.4 µM [inhibitor, single point]
O=C(Nc1cccc(S(=O)(=O)NC2=NCCC2)c1)C1CC(=O)N(c2ccc3c(c2)OCCO3)C1 (stereo not drawn) 39.8 µM [inhibitor, single point]
COC(=O)C1=C(C)N(CCc2c[nH]c3ccccc23)C(=O)/C1=C\N(C)C 15.8 µM [inhibitor, partial curve, poor fit]
Cc1c(NS(=O)(=O)c2ccc(N)cc2)c(=O)n(-c2ccccc2)n1C 89.1 µM [inhibitor, single point]
Cn1nc(CC(=O)NC2CCCCCCCCCCC2)c2ccccc2c1=O 8.91 µM [inhibitor, partial curve, poor fit]
O=C(N/N=C/c1cc(Br)c(O)c(Br)c1)c1cc2c(ccc3ccccc32)o1 31.6 µM [inhibitor, partial curve, poor fit]
CC1CCCCC1NC(=O)COC(=O)c1ccccn1 (stereo not drawn) 12.6 µM [inhibitor, single point]
COc1ccc(CNC(=O)C(=O)NCC(c2ccc3c(c2)OCO3)N2CCOCC2)cc1 (stereo not drawn) 89.1 µM [inhibitor, single point]
COc1ccc(CC(=O)OCCc2cc3cc(OC)c(OC)cc3c(=O)o2)cc1 39.8 µM [inhibitor, partial curve, poor fit]
CN(C)c1ccc(C(=C2C=CC(=[N+](C)C)C=C2)c2c(O)c(S(=O)(=O)[O-])cc3cc(S(=O)(=O)O)ccc23)cc1 56.2 µM [inhibitor, partial curve, poor fit]
CCc1ccc(OCC(=O)NC(NC(=S)Nc2ccccc2OC)C(Cl)(Cl)Cl)cc1 (stereo not drawn) 89.1 µM [inhibitor, single point]
CCC1=C/C(=C/N(C)c2ccccc2)C(=O)S1 22.4 µM [inhibitor, partial curve, poor fit]
O=CN1CCN(C2CC(=O)N(c3ccc4c(c3)OCO4)C2=O)CC1 (stereo not drawn) 39.8 µM [inhibitor, single point]
O=c1cc(O)n(-c2ccccc2F)c(=S)[nH]1 15.8 µM [inhibitor, partial curve, poor fit]
O=C(CCc1nc2ccccc2c(=O)[nH]1)Nc1nnc(SCc2ccc(Cl)cc2)s1 35.5 µM [inhibitor, partial curve, poor fit]
Cc1noc(NS(=O)(=O)c2ccc(NC(=O)c3ccc(N4C(=O)c5ccccc5C4=O)cc3)cc2)c1C 22.4 µM [inhibitor, full curve, poor fit]
CCOc1ccc(-c2cc(CCCC(=O)Nc3cccc(OC)c3)no2)cc1 11.2 µM [inhibitor, partial curve, poor fit]
O=C(CCl)N1c2ccccc2Oc2ccc3ccccc3c21 39.8 µM [inhibitor, single point]
S=c1[nH]c2ccccc2n2cccc12 89.1 µM [inhibitor, single point]

activity, negative = inhibition, inactive:
COCc1cc(C)nc2sc3c(=O)n(-c4cc(C)ccc4C)nnc3c12 -3.81%
CCOC(=O)c1ccccc1NC(=O)N1CCN2CCCCC2C1 (stereo not drawn) 6.91%
Cc1ccc(S(=O)(=O)NCCC(=O)NC2CCCCC2C)cc1 (stereo not drawn) -16.5%
COc1ccc(OC)c(C2CC(=O)N(c3cccc(C)c3)C3=C2C(=O)OC3)c1 (stereo not drawn) -0.863%
COC(=O)C1CCC(=S)N1C(=O)c1ccccc1 (stereo not drawn) -0.122%
Cc1ccc(CNC(=O)c2nc(SCc3cccc(C)c3)ncc2Cl)cc1 13%
Cc1cc(C)c(Cn2c3ccccc3c3cnn(CC(=O)NCCCc4ccccc4)c(=O)c32)c(C)c1 0.657%
CCC(=O)N1CCc2cc(S(=O)(=O)CCC(=O)N3CCN(c4cccc(C)c4)C(C)C3)ccc21 (stereo not drawn) 10.1%
COC(=O)C(C)N1C(=O)S/C(=C/c2cc(C)n(-c3ccccn3)c2C)C1=O (stereo not drawn) -4.75%
O=C(COC(=O)c1ccccn1)Nc1nccs1 -11.6%
COc1ccc(NC(=O)NNC(=O)COc2ccc([N+](=O)[O-])c(C)c2)cc1OC 33.5%
O=C(c1nc(-c2ccc(Cl)cc2)n2c1CCCCC2)N1CCN(c2ccc(F)cc2)CC1 17.8%
CN(C[C@@H](CC1CCCCC1)N(C[C@H](Cc1ccccc1)N(CCc1ccccc1)N=O)N=O)N=O 24.4%
CN(C(=O)c1cc2sccc2n1C)C1CCCCC1 -8.99%

Quoted at random: two records from the list, in no set order.
activity, negative = inhibition, inactive:
O=C(COC(=O)c1ccccn1)Nc1nccs1 -11.6%
COC(=O)C1CCC(=S)N1C(=O)c1ccccc1 (stereo not drawn) -0.122%

Ordered by molar mass (ascending): some entries from above
activity, negative = inhibition, inactive:
CCOC(=O)c1ccccc1NC(=O)N1CCN2CCCCC2C1 (stereo not drawn) 6.91%
COc1ccc(OC)c(C2CC(=O)N(c3cccc(C)c3)C3=C2C(=O)OC3)c1 (stereo not drawn) -0.863%
CN(C[C@@H](CC1CCCCC1)N(C[C@H](Cc1ccccc1)N(CCc1ccccc1)N=O)N=O)N=O 24.4%
